In doi:10.1101/2022.01.19.476979 (bioRxiv, 2022):

Biological target: RET, endogenous in human skin organoids (human (endogenous in human skin organoids))
Assay: proximity ligation

B1: Siah1, endogenous in human skin organoids (enzyme, UniProt Q8IUQ4 1-282)
chain: MSRQTATALPTGTSKCPPSQRVPALTGTTASNNDLASLFECPVCFDYVLPPILQCQSGHLVCSNCRPKLTCCPTCRGPLGSIRNLAMEKVANSVLFPCKYASSGCEITLPHTEKADHEELCEFRPYSCPCPGASCKWQGSLDAVMPHLMHQHKSITTLQGEDIVFLATDINLPGAVDWVMMQSCFGFHFMLVLEKQEKYDGHQQFFAIVQLIGTRKQAENFAYRLELNGHRRRLTWEATPRSIHEGIATAIMNSDCLVFDTSIAQLFAENGNLGINVTISMC
binding: binds

These are yes or no findings as the source states them, for the method shown. Binding seen in cells or lysates may run through a third protein. A result given as binding can be weak or reduced; the word gives no strength.
